According to the supplement of paper PMC12067093, “Discovery and optimisation of a covalent ligand for TRIM25 and its application to targeted protein ubiquitination” (Chemical Science, 2025):
This is one part of the list.

Sequences of proteins named here, by UniProt entry; tags and fusion partners are left off. A change or cut given only in a name is not applied to a line headed by its entry.
UniProt Q9Y490: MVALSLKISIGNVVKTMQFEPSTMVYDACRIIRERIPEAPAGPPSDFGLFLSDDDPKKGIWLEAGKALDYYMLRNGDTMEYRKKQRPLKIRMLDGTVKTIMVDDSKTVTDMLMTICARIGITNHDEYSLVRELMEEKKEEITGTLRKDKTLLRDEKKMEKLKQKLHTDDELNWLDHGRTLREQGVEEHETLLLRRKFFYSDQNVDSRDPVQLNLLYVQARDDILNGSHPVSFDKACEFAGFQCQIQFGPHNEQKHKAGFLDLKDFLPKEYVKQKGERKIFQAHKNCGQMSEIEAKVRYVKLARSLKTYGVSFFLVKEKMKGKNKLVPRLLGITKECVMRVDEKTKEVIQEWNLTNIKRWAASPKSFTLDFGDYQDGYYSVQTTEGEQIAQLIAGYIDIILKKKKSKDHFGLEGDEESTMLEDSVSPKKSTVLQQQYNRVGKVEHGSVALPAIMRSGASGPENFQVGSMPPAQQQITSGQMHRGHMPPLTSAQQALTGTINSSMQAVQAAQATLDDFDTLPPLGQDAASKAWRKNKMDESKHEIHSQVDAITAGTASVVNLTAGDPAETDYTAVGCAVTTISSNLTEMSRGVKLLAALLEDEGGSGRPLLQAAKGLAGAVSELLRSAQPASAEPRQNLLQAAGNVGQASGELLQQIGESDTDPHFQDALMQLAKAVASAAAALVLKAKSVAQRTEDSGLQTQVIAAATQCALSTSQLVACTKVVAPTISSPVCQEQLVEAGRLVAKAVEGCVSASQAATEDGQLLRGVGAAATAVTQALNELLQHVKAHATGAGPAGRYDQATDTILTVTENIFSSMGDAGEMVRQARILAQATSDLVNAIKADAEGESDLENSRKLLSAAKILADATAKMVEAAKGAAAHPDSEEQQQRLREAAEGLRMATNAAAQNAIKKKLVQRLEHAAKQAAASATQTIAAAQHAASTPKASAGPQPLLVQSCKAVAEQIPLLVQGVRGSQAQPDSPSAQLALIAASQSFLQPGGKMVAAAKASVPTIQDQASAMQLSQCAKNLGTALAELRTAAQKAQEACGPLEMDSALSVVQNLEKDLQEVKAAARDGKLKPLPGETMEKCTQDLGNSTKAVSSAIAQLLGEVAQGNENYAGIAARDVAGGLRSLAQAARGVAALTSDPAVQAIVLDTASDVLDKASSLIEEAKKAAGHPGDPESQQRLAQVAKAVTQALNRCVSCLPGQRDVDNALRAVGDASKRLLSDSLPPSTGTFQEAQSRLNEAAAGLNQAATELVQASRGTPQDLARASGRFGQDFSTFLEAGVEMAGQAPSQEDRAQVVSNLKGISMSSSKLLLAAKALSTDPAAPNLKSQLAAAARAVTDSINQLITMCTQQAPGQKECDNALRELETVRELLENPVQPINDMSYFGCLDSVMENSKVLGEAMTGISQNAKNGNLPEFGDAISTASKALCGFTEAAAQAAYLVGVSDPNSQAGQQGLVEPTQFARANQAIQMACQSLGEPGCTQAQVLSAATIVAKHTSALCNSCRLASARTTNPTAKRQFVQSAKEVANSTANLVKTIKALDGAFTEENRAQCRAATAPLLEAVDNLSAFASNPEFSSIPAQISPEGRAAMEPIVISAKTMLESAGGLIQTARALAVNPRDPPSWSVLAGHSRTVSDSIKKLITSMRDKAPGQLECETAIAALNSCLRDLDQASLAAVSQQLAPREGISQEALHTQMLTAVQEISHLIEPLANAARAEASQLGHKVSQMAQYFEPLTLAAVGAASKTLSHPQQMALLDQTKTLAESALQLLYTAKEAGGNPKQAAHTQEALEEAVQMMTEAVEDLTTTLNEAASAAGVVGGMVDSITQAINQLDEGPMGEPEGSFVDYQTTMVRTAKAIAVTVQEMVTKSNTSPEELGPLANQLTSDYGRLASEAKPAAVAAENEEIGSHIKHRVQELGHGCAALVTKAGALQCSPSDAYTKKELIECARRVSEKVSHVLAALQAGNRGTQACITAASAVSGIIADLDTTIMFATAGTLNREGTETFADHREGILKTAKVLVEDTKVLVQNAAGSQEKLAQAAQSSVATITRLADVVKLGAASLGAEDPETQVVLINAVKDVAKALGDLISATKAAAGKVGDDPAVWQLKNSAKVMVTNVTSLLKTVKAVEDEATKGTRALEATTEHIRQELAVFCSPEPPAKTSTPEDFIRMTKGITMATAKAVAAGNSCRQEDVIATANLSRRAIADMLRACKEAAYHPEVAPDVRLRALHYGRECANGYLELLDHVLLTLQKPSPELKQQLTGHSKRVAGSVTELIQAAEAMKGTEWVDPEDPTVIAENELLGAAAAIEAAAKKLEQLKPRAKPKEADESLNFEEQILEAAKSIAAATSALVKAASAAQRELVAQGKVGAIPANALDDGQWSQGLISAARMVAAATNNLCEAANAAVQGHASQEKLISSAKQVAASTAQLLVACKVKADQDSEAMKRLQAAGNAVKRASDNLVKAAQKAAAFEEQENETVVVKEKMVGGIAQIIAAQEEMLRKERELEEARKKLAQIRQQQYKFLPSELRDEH
UniProt O94826, whole entry, looked up: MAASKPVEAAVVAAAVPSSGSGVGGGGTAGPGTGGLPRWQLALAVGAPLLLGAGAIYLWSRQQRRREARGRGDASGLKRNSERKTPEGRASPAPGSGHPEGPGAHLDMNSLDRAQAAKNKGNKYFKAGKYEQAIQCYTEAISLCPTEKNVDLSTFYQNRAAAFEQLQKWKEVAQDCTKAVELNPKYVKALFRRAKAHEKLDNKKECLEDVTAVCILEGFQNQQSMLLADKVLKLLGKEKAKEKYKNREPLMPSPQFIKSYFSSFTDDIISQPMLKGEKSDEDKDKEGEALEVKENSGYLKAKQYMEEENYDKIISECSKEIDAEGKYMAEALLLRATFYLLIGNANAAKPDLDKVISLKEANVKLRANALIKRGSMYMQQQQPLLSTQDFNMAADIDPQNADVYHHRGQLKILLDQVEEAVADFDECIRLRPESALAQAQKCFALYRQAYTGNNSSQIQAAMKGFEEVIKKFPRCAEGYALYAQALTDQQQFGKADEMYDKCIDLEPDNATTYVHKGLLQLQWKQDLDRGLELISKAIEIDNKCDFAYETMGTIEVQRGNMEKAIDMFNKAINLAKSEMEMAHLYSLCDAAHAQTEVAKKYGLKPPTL
UniProt Q9NQ34: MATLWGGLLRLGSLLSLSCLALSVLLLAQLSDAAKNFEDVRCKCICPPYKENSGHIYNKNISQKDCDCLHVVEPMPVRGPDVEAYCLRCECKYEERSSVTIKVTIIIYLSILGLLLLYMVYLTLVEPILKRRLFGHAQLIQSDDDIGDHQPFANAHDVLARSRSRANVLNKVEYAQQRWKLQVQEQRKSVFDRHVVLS
UniProt Q68CZ2: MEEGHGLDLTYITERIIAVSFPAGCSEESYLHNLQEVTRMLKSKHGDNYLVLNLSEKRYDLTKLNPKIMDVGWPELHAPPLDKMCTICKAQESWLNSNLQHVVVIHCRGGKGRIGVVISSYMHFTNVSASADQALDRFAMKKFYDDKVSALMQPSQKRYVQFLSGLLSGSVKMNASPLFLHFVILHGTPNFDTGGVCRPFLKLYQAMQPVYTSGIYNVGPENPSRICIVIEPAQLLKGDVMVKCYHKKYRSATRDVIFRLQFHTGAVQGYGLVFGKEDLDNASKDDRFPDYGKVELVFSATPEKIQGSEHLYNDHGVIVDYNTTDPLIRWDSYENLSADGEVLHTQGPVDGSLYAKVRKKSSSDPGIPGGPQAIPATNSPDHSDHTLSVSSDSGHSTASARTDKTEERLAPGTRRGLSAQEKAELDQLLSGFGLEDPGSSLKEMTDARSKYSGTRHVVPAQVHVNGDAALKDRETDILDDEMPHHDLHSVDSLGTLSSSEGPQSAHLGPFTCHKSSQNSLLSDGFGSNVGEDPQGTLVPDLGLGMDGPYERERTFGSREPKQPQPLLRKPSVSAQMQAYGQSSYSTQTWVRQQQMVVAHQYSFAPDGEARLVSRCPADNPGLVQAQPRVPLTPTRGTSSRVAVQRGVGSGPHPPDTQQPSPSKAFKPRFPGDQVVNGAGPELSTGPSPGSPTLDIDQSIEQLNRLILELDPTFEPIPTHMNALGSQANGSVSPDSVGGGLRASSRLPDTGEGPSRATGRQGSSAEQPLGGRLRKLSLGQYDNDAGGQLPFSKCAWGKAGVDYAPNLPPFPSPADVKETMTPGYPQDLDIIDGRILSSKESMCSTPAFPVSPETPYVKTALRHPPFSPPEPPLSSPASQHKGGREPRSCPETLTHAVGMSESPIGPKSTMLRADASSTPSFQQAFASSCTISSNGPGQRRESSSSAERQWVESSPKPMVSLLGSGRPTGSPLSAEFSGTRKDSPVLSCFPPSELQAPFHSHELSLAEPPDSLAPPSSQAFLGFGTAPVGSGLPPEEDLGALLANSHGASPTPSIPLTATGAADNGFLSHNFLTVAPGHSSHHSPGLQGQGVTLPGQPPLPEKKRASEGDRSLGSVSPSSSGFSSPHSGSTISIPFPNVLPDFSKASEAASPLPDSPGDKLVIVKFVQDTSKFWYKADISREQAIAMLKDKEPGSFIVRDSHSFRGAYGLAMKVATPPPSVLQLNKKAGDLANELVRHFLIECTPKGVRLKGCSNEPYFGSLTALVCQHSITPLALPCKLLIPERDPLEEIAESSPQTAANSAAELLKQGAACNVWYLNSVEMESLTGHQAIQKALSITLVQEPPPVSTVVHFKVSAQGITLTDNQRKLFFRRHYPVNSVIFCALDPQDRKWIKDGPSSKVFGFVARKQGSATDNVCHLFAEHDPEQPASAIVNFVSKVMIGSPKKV
UniProt Q8IY95: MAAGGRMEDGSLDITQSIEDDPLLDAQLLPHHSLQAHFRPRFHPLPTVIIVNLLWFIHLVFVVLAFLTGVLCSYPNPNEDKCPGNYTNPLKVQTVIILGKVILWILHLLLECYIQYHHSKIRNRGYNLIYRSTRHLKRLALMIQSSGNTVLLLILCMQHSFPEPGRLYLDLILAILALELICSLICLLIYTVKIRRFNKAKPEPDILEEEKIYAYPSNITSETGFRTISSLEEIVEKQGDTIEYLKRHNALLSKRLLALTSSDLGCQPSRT
UniProt P42166: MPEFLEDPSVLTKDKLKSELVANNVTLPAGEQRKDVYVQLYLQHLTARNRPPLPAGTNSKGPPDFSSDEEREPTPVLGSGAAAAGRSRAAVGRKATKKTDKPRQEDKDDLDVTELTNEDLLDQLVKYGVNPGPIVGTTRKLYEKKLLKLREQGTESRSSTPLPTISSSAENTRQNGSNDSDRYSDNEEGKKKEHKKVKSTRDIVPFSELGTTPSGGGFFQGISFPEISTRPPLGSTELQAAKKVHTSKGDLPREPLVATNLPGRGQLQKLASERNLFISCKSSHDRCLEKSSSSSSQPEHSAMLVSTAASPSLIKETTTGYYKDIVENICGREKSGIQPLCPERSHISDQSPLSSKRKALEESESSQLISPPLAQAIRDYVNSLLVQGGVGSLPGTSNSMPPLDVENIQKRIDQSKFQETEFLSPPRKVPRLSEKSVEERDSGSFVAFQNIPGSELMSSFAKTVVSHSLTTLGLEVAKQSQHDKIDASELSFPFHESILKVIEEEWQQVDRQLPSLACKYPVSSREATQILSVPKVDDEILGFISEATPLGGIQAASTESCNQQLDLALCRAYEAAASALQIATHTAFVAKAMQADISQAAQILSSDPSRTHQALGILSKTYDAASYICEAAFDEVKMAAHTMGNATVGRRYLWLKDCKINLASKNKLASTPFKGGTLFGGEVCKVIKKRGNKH
UniProt O60784, whole entry: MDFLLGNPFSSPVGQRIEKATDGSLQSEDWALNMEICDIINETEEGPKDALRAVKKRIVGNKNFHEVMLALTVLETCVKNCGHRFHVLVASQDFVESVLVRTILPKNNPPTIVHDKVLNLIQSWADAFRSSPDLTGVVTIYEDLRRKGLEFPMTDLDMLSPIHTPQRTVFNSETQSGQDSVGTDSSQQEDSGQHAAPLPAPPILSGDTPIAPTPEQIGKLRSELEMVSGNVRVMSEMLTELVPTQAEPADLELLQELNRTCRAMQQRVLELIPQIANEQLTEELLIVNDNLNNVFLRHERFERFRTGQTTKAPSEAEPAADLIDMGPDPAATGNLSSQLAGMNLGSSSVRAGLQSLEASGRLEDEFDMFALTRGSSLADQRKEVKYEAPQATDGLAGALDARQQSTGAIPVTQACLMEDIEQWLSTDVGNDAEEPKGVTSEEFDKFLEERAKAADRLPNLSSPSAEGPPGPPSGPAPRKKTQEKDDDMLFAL
UniProt P60174, whole entry, looked up: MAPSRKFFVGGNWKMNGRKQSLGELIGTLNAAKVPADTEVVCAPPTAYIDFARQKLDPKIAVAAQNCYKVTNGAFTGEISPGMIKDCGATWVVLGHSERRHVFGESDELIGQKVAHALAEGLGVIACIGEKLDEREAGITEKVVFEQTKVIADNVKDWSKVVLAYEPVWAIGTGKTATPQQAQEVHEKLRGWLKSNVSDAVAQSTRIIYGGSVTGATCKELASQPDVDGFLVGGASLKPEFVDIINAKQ

Compound: CC1Cc2ccccc2N1C(=O)C1CCCN(C1)C(=O)CCl (mixture of isomers) [TRIM25 ligand 11 (diastereomer mixture)]
Test: probe-labelled cysteine peptide fold change vs DMSO (competition) (log2 fold change); higher = less target engagement (more negative = stronger competition)
Settings: THP-1, incubation time: 4 h
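Also: competitive chemoproteomic profiling in live THP-1 cells with an iodoacetamide desthiobiotin (IA-DTB) probe, comparing probe-labelled peptide intensities in compound-treated cells against DMSO-treated controls.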

Target: TLN1_Q9Y490_732_VVAPTISSPVCQEQLVEAGR (UniProt Q9Y490)
- probe-labelled cysteine peptide fold change (10 µM): 0.278
- probe-labelled cysteine peptide fold change (50 µM): 0.0981

Target: TONSL_Q96HA7_66_ERADDPLGCAVAHR (UniProt Q96HA7)
- probe-labelled cysteine peptide fold change (10 µM): 0.0137
- probe-labelled cysteine peptide fold change (50 µM): 0.199

Target: TOMM70_O94826_144_YEQAIQCYTEAISLCPTEK (UniProt O94826)
- probe-labelled cysteine peptide fold change (10 µM): 0.12
- probe-labelled cysteine peptide fold change (50 µM): -0.175

Target: TMA16_Q96EY4_162_ICANDAIPK (UniProt Q96EY4)
- probe-labelled cysteine peptide fold change (10 µM): -0.0162
- probe-labelled cysteine peptide fold change (50 µM): 0.0122

Target: TOP2A_P11388_216_AGEMELKPFNGEDYTCITFQPDLSK (UniProt P11388)
- probe-labelled cysteine peptide fold change (10 µM): 0.146
- probe-labelled cysteine peptide fold change (50 µM): 0.192

Target: TMEM9B_Q9NQ34_68_DCDCLHVVEPMPVRGPDVEAYCLR (UniProt Q9NQ34)
- probe-labelled cysteine peptide fold change (10 µM): 0.112
- probe-labelled cysteine peptide fold change (50 µM): 0.237

Target: TOMM70_O94826_502_CIDLEPDNATTYVHK (UniProt O94826)
- probe-labelled cysteine peptide fold change (10 µM): 0.000578
- probe-labelled cysteine peptide fold change (50 µM): 0.0185

Target: TLN1_Q9Y490_1671_DKAPGQLECETAIAALNSCLR (UniProt Q9Y490)
- probe-labelled cysteine peptide fold change (10 µM): -0.0788
- probe-labelled cysteine peptide fold change (50 µM): -0.176

Target: TMEM87B_Q96K49_139_NENLDCNSDSQVFPSLNNK (UniProt Q96K49)
- probe-labelled cysteine peptide fold change (10 µM): 0.185
- probe-labelled cysteine peptide fold change (50 µM): -0.00696

Target: TP53BP1_Q12888_1950_CAEALQLPVVSQEWVIQCLIVGER (UniProt Q12888)
- probe-labelled cysteine peptide fold change (10 µM): 0.0956
- probe-labelled cysteine peptide fold change (50 µM): -0.215

Target: TMEM62_Q0P6H9_325_SLLYSCGEHEPLER (UniProt Q0P6H9)
- probe-labelled cysteine peptide fold change (10 µM): 0.0278
- probe-labelled cysteine peptide fold change (50 µM): -0.1

Target: TOMM70_O94826_588_SEMEMAHLYSLCDAAHAQTEVAKK (UniProt O94826)
- probe-labelled cysteine peptide fold change (10 µM): -0.187
- probe-labelled cysteine peptide fold change (50 µM): -0.0954

Target: TNS3_Q68CZ2_25_IIAVSFPAGCSEESYLHNLQEVTR (UniProt Q68CZ2)
- probe-labelled cysteine peptide fold change (10 µM): -0.0308
- probe-labelled cysteine peptide fold change (50 µM): -0.321

Target: TOX4_O94842_596_DWDNEYCSNECVVK (UniProt O94842)
- probe-labelled cysteine peptide fold change (10 µM): -0.0519
- probe-labelled cysteine peptide fold change (50 µM): -0.0723

Target: TMEM192_Q8IY95_266_LLALTSSDLGCQPSRT (UniProt Q8IY95)
- probe-labelled cysteine peptide fold change (10 µM): -0.0314
- probe-labelled cysteine peptide fold change (50 µM): -0.0966

Target: TOP2B_Q02880_271_RAYDLAGSCR (UniProt Q02880)
- probe-labelled cysteine peptide fold change (10 µM): -0.0934
- probe-labelled cysteine peptide fold change (50 µM): 0.0553

Target: TNS3_Q68CZ2_1241_HFLIECTPK (UniProt Q68CZ2)
- probe-labelled cysteine peptide fold change (10 µM): -0.0515
- probe-labelled cysteine peptide fold change (50 µM): -0.0693

Target: TMPO_P42166_518_QLPSLACK (UniProt P42166)
- probe-labelled cysteine peptide fold change (10 µM): 0.0401
- probe-labelled cysteine peptide fold change (50 µM): -0.0147

Target: TOM1_O60784_77_NFHEVMLALTVLETCVK (UniProt O60784)
- probe-labelled cysteine peptide fold change (10 µM): 0.106
- probe-labelled cysteine peptide fold change (50 µM): 0.00703

Target: TOR3A_Q9H497_193_DGLMSDCVR (UniProt Q9H497)
- probe-labelled cysteine peptide fold change (10 µM): -0.00626
- probe-labelled cysteine peptide fold change (50 µM): 0.187

Target: TMEM30A_Q9NV96_157_ECEPYR (UniProt Q9NV96)
- probe-labelled cysteine peptide fold change (10 µM): 0.0677
- probe-labelled cysteine peptide fold change (50 µM): 0.13

Target: TOE1_Q96GM8_89_AVCHAAR (UniProt Q96GM8)
- probe-labelled cysteine peptide fold change (10 µM): 0.0725
- probe-labelled cysteine peptide fold change (50 µM): 0.158

Target: TPI1_P60174_164_VAHALAEGLGVIACIGEK (UniProt P60174)
- probe-labelled cysteine peptide fold change (10 µM): -0.0164
- probe-labelled cysteine peptide fold change (50 µM): -0.0769
